# No constants are given. Whether binding was seen depends on the method and setting. Binding seen in cells or lysates may run through a third protein. These calls come from enrichment with a bait or labelling near it, and not all partners need be listed.
# B1: signal peptidase complex subunit 3 (protein, UniProt P61009 1-180)
# chain: MNTVLSRANSLFAFSLSVMAALTFGCFITTAFKDRSVPVRLHVSRIMLKNVEDFTGPRERSDLGFITFDITADLENIFDWNVKQLFLYLSAEYSTKNNALNQVVLWDKIVLRGDNPKLLLKDMKTKYFFFDDGNGLKGNRNVTLTLSWNVVPNAGILPLVTGSGHVSVPFPDTYEITKSY
# B2: signal peptidase complex catalytic subunit SEC11C (protein, UniProt Q9BY50 1-192)
# chain: MVRAGAVGAHLPASGLDIFGDLKKMNKRQLYYQVLNFAMIVSSALMIWKGLIVLTGSESPIVVVLSGSMEPAFHRGDLLFLTNFREDPIRAGEIVVFKVEGRDIPIVHRVIKVHEKDNGDIKFLTKGDNNEVDDRGLYKEGQNWLEKKDVVGRARGFLPYVGMVTIIMNDYPKFKYALLAVMGAYVLLKRES
# B3: signal peptidase complex subunit 1 (endogenous) (protein, UniProt Q9Y6A9 1-169)
# chain: MARGGDTGCTGPSETSASGAAAIALPGLEGPATDAQCQTLPLTVLKSRSPSPRSLPPALSCPPPQPAMLEHLSSLPTQMDYKGQKLAEQMFQGIILFSAIVGFIYGYVAEQFGWTVYIVMAGFAFSCLLTLPPWPIYRRHPLKWLPVQESSTDDKKPGERKIKRHAKNN
# Molecular target: GFP-tagged DS1-VP7 (VP7 of human rotavirus DS1 strain) (human rotavirus DS1 strain)
# Experiment: affinity purification with mass spectrometry; tandem affinity purification (two rounds of immunoprecipitation) of DS1 VP7 followed by LC-MS/MS; host proteins that co-precipitate
row,Binder,binding
1,B1,binds
2,B2,binds
3,B3,binds

# — publication PMC12637713
